Values joined by “and” are separate entries in the source; they are usually repeats but may differ in a detail not shown here. Identical values can stand only once. “Also recorded” adds a separate entry of the source. Part of at least one peptide drawing is inferred or uncertain, most often the ends.
Experiments:
[1] = tested on: OVCAR-3; assay: In vitro 3H-thymidine incorporation, OVCAR-3; assay type: cell-based, Human; details: 100 μM folic acid
[2] = tested on: IGROV; assay: In vitro 3H-thymidine incorporation, IGROV; assay type: cell-based, Human; details: 100 μM folic acid
[3] = tested on: FR-negative cells; assay: In vitro cytotoxicity against FR-negative cells; assay type: cell-based
[4] = biological target: T1, folate receptors (FRs) (Homo sapiens, UniProt P15328); assay: Relative affinity assay (3H-folic acid displacement on KB cells); assay type: binding; details: 10% serum/FDRPMI
T1 construct: FR-positive KB cells were heavily seeded into 24-well cell culture plates; endogenous in cells; host or cells: KB cells
Procedure: METHOD: Relative Affinity Assay. The affinity for folate receptors (FRs) relative to folate was determined according to a previously described method (Westerhof, G. R., J. H. Schornagel, et al. (1995) Mol. Pharm. 48: 459-471) with slight modification. Briefly, FR-positive KB cells were heavily seeded into 24-well cell culture plates and allowed to adhere to the plastic for 18 h. Spent incubation media was replaced in designated wells with folate-free RPMI (FFRPMI) supplemented with 100 nM ^3H-folic acid in the absence and presence of increasing concentrations of test article or folic acid. Cells were incubated for 60 min at 37° C. and then rinsed 3 times with PBS, pH 7.4. Five hundred microliters of 1% SDS in PBS, pH 7.4, were added per well. Cell lysates were then collected and added to individual vials containing 5 mL of scintillation cocktail, and then counted for radioactivity. Negative control tubes contained only the ^3H-folic acid in FFRPMI (no competitor). Positive control tubes contained a final concentration of 1 mM folic acid, and CPMs measured in these samples (representing non-specific binding of label) were subtracted from all samples.

Protein sequences, listed by entry. Tags and fused reporters are not part of them. Residues count along the entry.
UniProt P15328, 25-234: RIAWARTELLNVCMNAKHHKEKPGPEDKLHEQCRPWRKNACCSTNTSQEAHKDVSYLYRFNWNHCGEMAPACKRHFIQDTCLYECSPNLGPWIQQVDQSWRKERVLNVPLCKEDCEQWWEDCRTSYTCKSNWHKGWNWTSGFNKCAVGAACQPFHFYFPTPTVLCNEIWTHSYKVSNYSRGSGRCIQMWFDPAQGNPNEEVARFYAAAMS

[5] = tested on: KB tumors; assay: KB tumor assay in nu/nu mice; assay type: in vivo
[6] = tested on: KB cells; assay: In vitro cytotoxicity, 3H-thymidine incorporation, KB cells; assay type: cell-based, Human; details: excess folic acid
[7] = tested on: RAW; assay: In vitro 3H-thymidine incorporation, RAW; assay type: cell-based, Mouse; details: 100 μM folic acid
[8] = tested on: 4T-1-FR; assay: In vitro 3H-thymidine incorporation, 4T-1-FR; assay type: cell-based, Mouse; details: 100 μM folic acid
[9] = tested on: s.c. tumors; assay: Inhibition of tumor growth in mice (tumor model not stated, FIG. 9 and 11); assay type: in vivo; details: FIG. 11
Procedure: METHOD: Inhibition of Tumor Growth in Mice. Four to seven week-old mice (Balb/c or nu/nu strains) were purchased from Harlan Sprague Dawley, Inc. (Indianapolis, Ind.). Normal rodent chow contains a high concentration of folic acid (6 mg/kg chow); accordingly, mice used were maintained on the folate-free diet (Harlan diet #TD00434) for 1 week before tumor implantation to achieve serum folate concentrations close to the range of normal human serum. For tumor cell inoculation, 1×10^6 M109 cells (Balb/c strain) or 1×10^6 KB cells (nu/nu strain) in 100 μL were injected in the subcutis of the dorsal medial area. Tumors were measured in two perpendicular directions every 2-3 days using a caliper, and their volumes were calculated as 0.5×L×W^2, where L=measurement of longest axis in mm and W=measurement of axis perpendicular to L in mm. […] Dosing solutions were prepared fresh each day in PBS and administered through the lateral tail vein of the mice.

[10] = tested on: M109 tumors; assay: M109 tumor assay in Balb/c mice; assay type: in vivo; details: for recurrence or regrowth of the tumors: observation period greater than 90 days, 5 of 5 animals

SMILES: CCCC(=O)OCN(C(=O)[C@@H](NC(=O)[C@H]1CCCCN1C)C(C)CC)[C@H](C[C@@H](OC(C)=O)c1nc(C(=O)N[C@@H](Cc2ccc(O)cc2)C[C@H](C)C(=O)NNC(=O)OCCSSC[C@H](NC(=O)[C@H](CC(=O)O)NC(=O)[C@H](CCCNC(=N)N)NC(=O)[C@H](CC(=O)O)NC(=O)CC[C@H](NC(=O)c2ccc(NCc3cnc4nc(N)[nH]c(=O)c4n3)cc2)C(=O)O)C(=O)O)cs1)C(C)C (some centres unmarked) [EC0305]
- Activity Blocked with Excess FA [1]: Yes
- Activity Blocked with Excess FA [2]: Yes
- activity against FR-negative cells [3]: no activity
- relative affinity for the folate receptor compared to folic acid [4]: 96%
- relative affinity ([4]; folic acid set to 1): 0.96
- complete responses ([5]; KB tumors (FIG. 5), TIW two week schedule, dose at or above 1 μmol/kg): 5 of 5
- recurrence or regrowth of the tumors ([5]; KB tumors (FIG. 5), doses at or above 1 μmol/kg, more than 70 days after last administration, 5 of 5 animals): no recurrence or regrowth
- complete responses ([5]; KB tumors, 0.5 μmol/kg TIW, two week schedule): 1/5
- complete responses ([5]; KB tumors, 1 μmol/kg TIW, two week schedule): 5/5
- complete responses ([5]; KB tumors, 2 μmol/kg TIW, two week schedule): 5/5
- complete responses ([5]; KB tumors, EC0305 1 μmol/kg TIW co-dosed with EC-20 (rhenium) 40 μmol/kg TIW): 0/5
- complete responses ([5]; human KB xenograft-nu/nu mice, dose not stated): 5/5
- Activity Blocked with Excess FA [6]: specificity for the folate receptor; also recorded: blocked in the presence of an excess of folic acid
- Activity Blocked with Excess FA ([6]; listed as EC305): Yes
- Activity Blocked with Excess FA [7]: Yes
- Activity Blocked with Excess FA [8]: Yes
- recurrence or regrowth of the tumors ([9]; 2 μmol/kg TIW two weeks, 90 plus day observation period, 5 of 5 animals): no recurrence or regrowth
- complete responses ([9]; 2 μmol/kg TIW, two-week schedule): 5/5 and 5 of 5
- complete responses ([10]; Balb/c mice, subcutaneous M109 tumors, intravenous, dose not stated): 5 of 5
- test animals free of any measurable amounts of tumor ([10]; M109, more than 90 days post tumor implantation, more than 70 days after treatment discontinued): 5 of 5
- complete responses ([10]; M109 tumors (FIG. 7), 2 μmol/kg TIW, two week schedule): 5/5
- complete responses ([10]; M109 tumors (FIG. 7), 2 μmol/kg TIW, two week schedule, listed as EC305): 5 of 5
- recurrence or regrowth of the tumors ([10]; M109 tumors (FIG. 7)): No recurrence or regrowth
- recurrence or regrowth of the tumors ([10]; M109 tumors (FIG. 7), listed as EC305): no recurrence or regrowth
- onset of tumor regrowth ([10]; M109 tumors (FIG. 12), 2 μmol/kg TIW two weeks, last dosing day 20): ~35 day PTI
- complete responses ([10]; M109 tumors (FIG. 12), 2 μmol/kg three times per week for two weeks): complete responses in all animals and 4 of 5 and 4/5
